Changes are numbered by the printed parent chain. These are yes or no findings as the source states them, for the method shown. Binding can be weak; no strength is given.

B1: 55A1 antibody (antibody, V domains shown)
VH: QIHLVQSGPELKKPGETVKISCKASGYTFTNYGMNWVKQAPGKGLKWMGWINTYSGVPTYAGDFKGRFAFSLETSASTAYLQINNLKNEDTATYFCARRGYYGRRYFDVWGTGTTVTVSS
VL: DIVLTQSPASLAVSLGQRATISCKASQSVDYDVDSYMHWYQQKPGQPPKLLIYAASNLASGIPARFSGGGSGTDFTLNIHPVEEEDVATYYCQQTIEDPPTFGGGTKLEIK
B2: 7D4 antibody (antibody, V domains shown)
VH: B1 VH with H3Q, G44D, G62D, R99F, G100S, R105H, V109Y, T112Q, V116L
VL: DIVLTQSPASLAVSLGQRATISCKASQSVDYDGDSYMNWYQQKPGQPPQLLIYAASNLGSGIPARFSGSGSGTDFTLNIHPVEEEDAATYYCHQSTDDPPWTFGGGTKLEIK
B3: 19E7 antibody (antibody, V domains shown)
VH: QVQLQQPGSVLVRPGASVKLSCKASGYTFTTYWMHWVKQRPGQGLEWIGEIHPYSGNNNNNEKFKGKATLTVDTSSSTAYVDLSRLTSEDSAVYYCARYDSNYVFAYWGQGTLVTVSA
VL: QIVLTQSPAIMSASPGEGVTITCSASSSVSYMHWFQQKPGTSPKLWIYSTSNLASGVPARFSGSGSGTSYSLTISRMEAEDAATYYCQQRDSYLTFGSGTKLEVK
B4: 16B3 antibody (antibody, V domains shown)
VH: DVKLVESGGGLVQPGGSLKLSCTASGFTFSGYTMSWVRQTPEKRLELVAEISFARDRAFYPDTVKGRFTISRDNAKNTLYLQMSSLKSEDTAMYYCTRLGGRNHDYWYFDVWGTGTTVTVSS
VL: DIVLTQSPTSLAVSPGQRATISCRASESVEYYGTSLMQWYQQKPGQRPQLLIYAASNVESGVPARFSGSGSGTDFSLNIHPVEEDDIAVYFCQQSWKVPFTFGSGTKLEIK
B5: 23H8 antibody (antibody, V domains shown)
VH: EVQLQQSGPELLKPGASVKISCKASGYTFTDNTIHWVKQSHGKSLEWIGHINPYYGGTNNNEKFKDKATLTVDKSSSTAYMELRSLTSEDSAIYYCARKGIYYSSPFDYWGQGTTLTVSS
VL: DIQMTQTTSSLSASLGDRVTISCRASQDINNYLNWYQQKPDGTVKLLISYTSKLHSGVPSRFSGSGSGTDYSLTISNLEREDFATYFCQQGNTLPFTFGSGTNLEIK
B6: 14E1 antibody (antibody, V domains shown)
VH: QVQLQQSGAELVKPGASVRLSCKASGYTFTKYTIHWVKQRSGQGLEWIGWFYPGSDSIKYNEKFKDKATLTADKSSRTVYMELSRLTSEDSAVYFCARHEEYTNSLAYWGQGTLVTVSA
VL: B5 VL with N30S, K39Q, S49Y, K53R, R80Q, F83I, N92Y, F96W, S100G
B7: 13B3 antibody (antibody, V domains shown)
VH: EVQLQQSGPELLKPGASVKISCKASGYTFTEYTMHWVKQSHGKSLEWIGSINPYYGGTSYNEKFKDKATLTVDKSSNTAYMEFRSLTSEDCAVYYCARYGNYVGYFDYWGQGTTLTVSS
VL: ENVLTQSPAIMSASLGEKVTMSCRASSSVHYMYWYQQKSDASPKLWIYYTSNLAPGVPDRFSGSGSGNSYSLTISSMEGEDAATYYCQQFTSSPYTFGGGTKLEIK
B8: 14A1 antibody (antibody, V domains shown)
VH: QIQLVQSGPELKKPGETVKISCKASGYTFTNYGMNWVKQAPGKGLKWMGWINTYSGVPTYADDFKGRFAFSLETSASTAYLQINNFKNEDTATYFCARFSYYGRHYFDYWGQGTALTASS
VL: B2 VL with Q49K, G59K, H93Q, S95T
B9: 53A11 antibody (antibody, V domains shown)
VH: EVQLQQSGPELLKPGASVKISCKASGYTFTDYTMHWVKQSHGKSLEWIGGINPYYGGTTYNEKFKDKATLTVDKSSSTAYMELRSLTSEDSAVYYCAKGDYYGGSYNYWGQGTTLTVSS
VL: DIVLTQSLATLSVTPGDSVSLSCRASQDISNSLHWYQQKSHESPRLLIKYASQSISGIPSRFSGSGSGTDFTLSINSVETEDFGMYFCQQSNSWPYTFGGGTKLEIK

The first assay addresses cynomolgus monkey EL with C2 tag (cynomolgus monkey). Put plainly: ELISA: antibody captured on anti-mouse IgG-Fc plate, C2-tagged EL heparin extract added, anti-C2-tag detection, A450 (Example 8). A general note: An ELISA detects its analyte on a solid surface through an enzyme-linked reagent.
Turning to B1, the binding result is listed as “binds”.

In the case of B2, the binding entry is on record as “binds”.

Consider B3, for which the binding entry is on record as “binds”.

As to B4, the binding entry is “binds”.

In the case of B5, the binding result is listed as “binds”.

Regarding B6, the binding result is given as “binds”.

Regarding B7, the binding entry was “binds”.

For the molecule B8, the binding result was “binds”.

Take B9: the binding entry is “binds”.

Another assay deals with rabbit EL with C2 tag (rabbit). The assay is described as above.
For B1, the binding result is on record as “no binding (tested: about 300 ng/mL)”.

Consider B2, for which the binding entry is “no binding (tested: about 300 ng/mL)”.

Consider B3, for which the binding entry is given as “binds”.

Regarding B4, the binding entry is “binds”.

For the molecule B5, the binding entry is “binds”.

For the molecule B6, the binding entry was “binds”.

For the molecule B7, the binding entry is recorded as “binds”.

For the molecule B8, the binding entry is given as “no binding (tested: about 300 ng/mL)”.

Consider B9, for which the binding entry was “no binding (tested: about 300 ng/mL)”.

In the next assay the target is cynomolgus monkey EL with C2 tag (cynomolgus monkey). The experiment in a line: sandwich ELISA: antibody captured on anti-mouse IgG-Fc plate, EL heparin extract added, detected by anti-C2-tag antibody.
With B1, the binding result was “binds”.

In the case of B2, the binding entry was “binds”.

Regarding B3, the binding result is “binds”.

For B4, the binding result is reported as “binds”.

With B5, the binding entry is “binds”.

With B6, the binding entry is given as “binds”.

As to B7, the binding result is recorded as “binds”.

Regarding B8, the binding result is listed as “binds”.

B9: the binding entry is “binds”.

Another assay addresses rabbit EL with C2 tag (rabbit). The assay is described as above.
B1: the binding entry is given as “no binding”.

As to B2, the binding result is listed as “no binding”.

As for B3, the binding entry is “binds”.

Turning to B4, the binding result is on record as “binds”.

On to B5, for which the binding entry is “binds”.

In the case of B6, the binding entry is recorded as “binds”.

For the molecule B7, the binding entry is listed as “binds”.

Regarding B8, the binding result was “no binding”.

Take B9: the binding entry was “no binding”.
